These are yes or no findings as the source states them, for the method shown. Binding seen in cells or lysates may run through a third protein. Some binding calls cover weakened binding; strength is not graded here.
How the values were obtained:
Experiment in all cases: co-IP
[1] = target: EGFP-Sra1 ΔM #2 (Sra1^Y948A/T951A) (murine) (UniProt Q7TMB8)
[2] = target: EGFP-Sra1 ΔD (Sra1^Y967A) (murine) (UniProt Q7TMB8)
EGFP-Sra1 (WT) (murine) = EGFP-Sra1 (WT) (murine) (UniProt Q7TMB8)
[3] = target: EGFP-Sra1 ΔM #1 (Sra1^Y986A/E988A) (murine) (UniProt Q7TMB8)

The chains behind the UniProt entries cited, without tags or fusion partners. Where a name states a change or a piece, a line headed by the entry shows the natural chain unless it says otherwise.
UniProt Q7TMB8: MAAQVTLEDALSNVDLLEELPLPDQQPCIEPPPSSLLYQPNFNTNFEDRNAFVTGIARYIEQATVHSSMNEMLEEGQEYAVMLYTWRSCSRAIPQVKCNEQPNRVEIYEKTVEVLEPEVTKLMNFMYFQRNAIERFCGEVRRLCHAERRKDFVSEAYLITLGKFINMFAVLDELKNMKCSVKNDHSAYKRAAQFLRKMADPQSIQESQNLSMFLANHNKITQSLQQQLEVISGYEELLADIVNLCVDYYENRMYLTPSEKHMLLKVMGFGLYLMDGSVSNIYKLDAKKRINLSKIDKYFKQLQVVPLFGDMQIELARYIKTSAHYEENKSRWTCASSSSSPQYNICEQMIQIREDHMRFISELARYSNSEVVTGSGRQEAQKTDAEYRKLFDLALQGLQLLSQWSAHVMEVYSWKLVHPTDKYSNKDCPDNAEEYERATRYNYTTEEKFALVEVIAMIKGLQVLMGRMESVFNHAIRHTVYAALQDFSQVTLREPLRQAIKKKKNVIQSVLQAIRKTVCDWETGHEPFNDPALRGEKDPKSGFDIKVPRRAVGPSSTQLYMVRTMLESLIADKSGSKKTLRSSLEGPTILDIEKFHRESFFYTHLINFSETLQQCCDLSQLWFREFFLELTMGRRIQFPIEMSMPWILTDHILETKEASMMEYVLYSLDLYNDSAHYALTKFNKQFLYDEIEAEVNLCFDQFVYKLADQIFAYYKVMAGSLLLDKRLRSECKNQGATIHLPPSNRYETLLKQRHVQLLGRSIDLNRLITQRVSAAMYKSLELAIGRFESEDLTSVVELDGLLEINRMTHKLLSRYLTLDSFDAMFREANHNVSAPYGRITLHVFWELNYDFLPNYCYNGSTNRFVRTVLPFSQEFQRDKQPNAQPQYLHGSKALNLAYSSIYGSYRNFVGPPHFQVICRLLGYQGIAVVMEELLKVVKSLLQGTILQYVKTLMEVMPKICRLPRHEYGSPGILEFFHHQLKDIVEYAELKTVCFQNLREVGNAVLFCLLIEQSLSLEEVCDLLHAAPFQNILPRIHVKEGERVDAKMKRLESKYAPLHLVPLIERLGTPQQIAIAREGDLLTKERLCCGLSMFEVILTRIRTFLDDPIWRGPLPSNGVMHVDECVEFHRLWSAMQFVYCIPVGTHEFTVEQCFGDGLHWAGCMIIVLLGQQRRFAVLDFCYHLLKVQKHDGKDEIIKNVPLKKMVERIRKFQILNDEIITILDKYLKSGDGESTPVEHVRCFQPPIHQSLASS

Measured: binding

B1: Nap1 (endogenous, B16-F1) (protein, UniProt P28660 1-1128)
chain: MSRSVLQPSQQKLAEKLTILNDRGVGMLTRLYNIKKACGDPKAKPSYLIDKNLESAVKFIVRKFPAVETRNNNQQLAQLQKEKSEILKNLALYYFTFVDVMEFKDHVCDLLNTIDVCQVFFDITVNFDLTKNYLDLTVTYTTLMILLSRIEERKAIIGLYNYAHEMTHGASDREYPRLGQMIVDYENPLKKMMEEFVPHSKSLSDALISLQMVYPRRNLSADQWRNAQLLSLISAPSTMLNPAQSDTMPCEYLSLDAMEKWIIFGFILCHGMLNTEATALNLWKLALQSSSCLSLFRDEVFHIHKAAEDLFVNIRGYNKRINDIRECKEAAVSHAGSMHRERRKFLRSALKELATVLSDQPGLLGPKALFVFMALSFARDEIIWLLRHADNMPKKSADDFIDKHIAELIFYMEELRAHVRKYGPVMQRYYVQYLSGFDAVVLNELVQNLSVCPEDESIIMSSFVNTMTSLSVKQVEDGEVFDFRGMRLDWFRLQAYTSVSKASLSLADHRELGKMMNTIIFHTKMVDSLVEMLVETSDLSIFCFYSRAFEKMFQQCLELPSQSRYSIAFPLLCTHFMSCTHELCPEERHHIGDRSLSLCNMFLDEMAKQARNLITDICTEQCTLSDQLLPKHCAKTISQAVNKKSKKQTGKKGEPEREKPGVESMRKNRLVVTNLDKLHTALSELCFSINYVPNMAVWEHTFTPREYLTSHLEIRFTKSIVGMTMYNQATQEIAKPSELLTSVRAYMTVLQSIENYVQIDITRVFNNVLLQQTQHLDSHGEPTITSLYTNWYLETLLRQVSNGHIAYFPAMKAFVNLPTENELTFNAEEYSDISEMRSLSELLGPYGMKFLSESLMWHISSQVAELKKLVVENVDVLTQMRTSFDKPDQMAALFKRLSSVDSVLKRMTIIGVILSFRSLAQEALRDVLSYHIPFLVSSIEDFKDHIPRETDMKVAMNVYELSSAAGLPCEIDPALVVALSSQKSENISPEEEYKIACLLMVFVAVSLPTLASNVMSQYSPAIEGHCNNIHCLAKAINQIAAALFTIHKGSIEDRLKEFLALASSSLLKIGQETDKTTTRNRESVYLLLDMIVQESPFLTMDLLESCFPYVLLRNAYHAVYKQSVTSSA
binds: all assays above
